The assay addresses T1, GPRASP2-GFP (mouse G-protein-coupled receptor associated sorting protein 2 fused to GFP) (mouse) (UniProt Q8BUY8).
T1 sequence: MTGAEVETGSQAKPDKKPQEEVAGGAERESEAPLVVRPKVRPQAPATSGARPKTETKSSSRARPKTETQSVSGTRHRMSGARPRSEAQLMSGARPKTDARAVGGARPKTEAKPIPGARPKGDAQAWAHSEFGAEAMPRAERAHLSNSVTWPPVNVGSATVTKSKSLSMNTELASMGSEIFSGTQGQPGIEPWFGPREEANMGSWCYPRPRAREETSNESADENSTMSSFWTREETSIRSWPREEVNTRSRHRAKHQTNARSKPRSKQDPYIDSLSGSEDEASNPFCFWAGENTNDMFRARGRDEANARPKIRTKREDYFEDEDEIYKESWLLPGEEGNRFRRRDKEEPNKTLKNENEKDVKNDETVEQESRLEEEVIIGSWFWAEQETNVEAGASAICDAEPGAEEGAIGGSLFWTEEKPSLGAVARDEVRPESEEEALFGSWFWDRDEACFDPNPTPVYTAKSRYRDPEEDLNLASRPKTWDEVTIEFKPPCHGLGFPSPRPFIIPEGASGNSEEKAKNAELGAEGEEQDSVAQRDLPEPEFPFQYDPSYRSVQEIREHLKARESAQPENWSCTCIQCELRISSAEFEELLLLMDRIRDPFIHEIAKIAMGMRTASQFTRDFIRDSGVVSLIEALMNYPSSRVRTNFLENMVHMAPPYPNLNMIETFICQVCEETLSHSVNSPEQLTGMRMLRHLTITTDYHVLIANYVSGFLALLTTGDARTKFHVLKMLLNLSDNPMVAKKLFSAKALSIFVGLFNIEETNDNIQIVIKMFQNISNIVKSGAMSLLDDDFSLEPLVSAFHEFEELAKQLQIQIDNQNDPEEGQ
In words: co-IP; HT-22 cells co-transfected with pmGluR5b and pGPRASP2-GFP, 48 h; control conditions or 100 µM DHPG for 5 or 30 min; lysis in TEEN buffer (25 mM Tris pH 7.4, 1 mM EGTA, 1 mM EDTA, 150 mM NaCl, 1% Triton); 800 µg extract with anti-GPRASP2 antibody or control IgG overnight at 4 °C, Sepharose A beads; western blot.

Amino acid sequences for entries named in this document (tags omitted). A change or cut given only in a name is not applied to a line headed by its entry. Residues count along the entry.
UniProt Q3UVX5, residues 19-1203: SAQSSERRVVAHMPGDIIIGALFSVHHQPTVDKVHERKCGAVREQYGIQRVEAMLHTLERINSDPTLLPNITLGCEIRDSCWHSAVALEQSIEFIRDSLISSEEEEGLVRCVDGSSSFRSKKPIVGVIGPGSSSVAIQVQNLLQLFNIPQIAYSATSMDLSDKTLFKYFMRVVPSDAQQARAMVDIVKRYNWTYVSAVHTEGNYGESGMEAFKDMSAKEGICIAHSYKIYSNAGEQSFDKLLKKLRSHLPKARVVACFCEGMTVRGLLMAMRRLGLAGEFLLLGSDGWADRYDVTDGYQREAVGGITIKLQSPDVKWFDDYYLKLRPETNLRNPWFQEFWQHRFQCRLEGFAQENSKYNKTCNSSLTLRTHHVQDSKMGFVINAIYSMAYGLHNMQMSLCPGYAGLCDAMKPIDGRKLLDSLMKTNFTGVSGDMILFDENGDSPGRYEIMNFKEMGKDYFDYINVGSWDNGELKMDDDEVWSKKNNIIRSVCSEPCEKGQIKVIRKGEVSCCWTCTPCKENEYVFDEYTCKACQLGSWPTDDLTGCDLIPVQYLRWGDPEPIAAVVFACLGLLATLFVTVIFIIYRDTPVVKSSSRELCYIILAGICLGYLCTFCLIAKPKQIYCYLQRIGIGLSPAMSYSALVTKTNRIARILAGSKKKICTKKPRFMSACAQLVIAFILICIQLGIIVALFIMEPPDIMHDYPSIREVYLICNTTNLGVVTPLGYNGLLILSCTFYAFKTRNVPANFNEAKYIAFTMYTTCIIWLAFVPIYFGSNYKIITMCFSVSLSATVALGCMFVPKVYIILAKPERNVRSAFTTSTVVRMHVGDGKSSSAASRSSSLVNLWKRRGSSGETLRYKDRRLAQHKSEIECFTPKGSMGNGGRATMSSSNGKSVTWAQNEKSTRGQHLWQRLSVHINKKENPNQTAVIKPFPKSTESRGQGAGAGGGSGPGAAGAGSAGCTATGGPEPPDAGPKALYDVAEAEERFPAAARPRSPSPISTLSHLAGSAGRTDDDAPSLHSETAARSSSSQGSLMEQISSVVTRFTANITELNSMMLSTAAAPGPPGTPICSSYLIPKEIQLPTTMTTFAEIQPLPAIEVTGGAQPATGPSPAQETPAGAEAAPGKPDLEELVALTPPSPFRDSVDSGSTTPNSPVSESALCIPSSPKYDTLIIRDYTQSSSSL

This note sets out measurements from paper PMC6440958.

Results are given in words; binding and its absence hold for the method and conditions named. In cells and extracts the contact can be indirect. Some results given as binding are weak or reduced against the parent protein; the word gives no strength. Sequences can lack the tags named with a protein.

As to “mGluR5b (metabotropic glutamate receptor 5, splice variant b) (from UniProt Q3UVX5 19-1203)”, the binding result is “binds”.
